Assay: soluble on expression in E. coli; label from the status in PepcDB or PDB records

Sequence	soluble on expression in E. coli
MTTTSSDELPRQADDDSMKWDRIYIQKLDPEVIFTKQERIGRGSFGEVYKGIDNRTGRVVAIKIIDLEQAEDEIEDIQQEIQVLSQCDSQYVTKYFGSFLKGSKLWIIMEYLGGGSALDLTKSGKLDESHIAVILREILKGLEYLHSERKIHRDIKAANVLVSEHGDVKVADFGVAGQLTETVKKRITFVGSPFWMAPELIKQSSYDYKADIWSLGITAIELANGEPPHSDLHPMRVLFLIPKNPPPVLQGSQWSKPFKEFVEMCLNKDPENRPSASTLLKHQFIKRAKKNSILVDLIERAAEYRLRTGVSSDSDLDEDSDGGGGTSKWDYPTVRGPRVSADDDGTVRQRTDRPRAQVDRRSPSGSPGGTIVRGSPQVAAVAEQLRNSSVGSSGYGSGGNSASSQYATSSLPQSHTASSGGATTITLGSPNGSPTSSLARTQSMVSPSGQRSGSAQSWELERGNRPMSERVSSQVSPSKYNQHRTSSSNGVQGGSGGRREYINGSGSGLNGNSSNQNHSEYSDAVRQRGPGGSGGRLDYRESHVPTSSQENLNHGRMYGYGAPPPSREANNVPMPRVKGALDCSLLPAIEHLSRTRHATAALDQLRHVFRDVEDSCPGICNELIEELMQRIAVPQVSQSDLDAAIRRLTTPPS	not soluble
MYALLDCNNFFVSCERVFDPSLRNRPVVVLSNNDGCIIARSNEAKALGIGMGQPFFKVQDLIRRHNVAFFSSNFILYGDMSRRIMSLVSELVPRMSIYSIDECFMDLRGVKDYMSLCHMIVDRVRQCTGIPVSIGVADTMTLSKVADKYAKRYAGYKGVCAIDSEEKRRKALQTFDVSDVWGIGRRLSRKLYYYGINTAADFASMREGRVYRLAGTSGVRTWQELRGEACKEMKLPQPRQSVCTTRSFGHPCRDFDSLLRHLAVFADSCCTKIREEKSRARRLSIFISCSRFDQENDYSGRNEMLLPVATSDPSELIPKIRTLLQEIYRPNLPYKQAGVILSDLVAEAYQLNLFDPIDRMRQERFLSSVDAIRQRFGRDSLTVATQETEAIASVSSIKHRSRRYTTDMNEVIDVVLPDQRKSGEKKSTINSR	not soluble
NDMIFSAIASMFPENGVPDDMKERYRELTEMSDPNALPPQCTPNIDGPNAKSVQREQSLHSFHTLFCRRCFKYDCFLHPFHATPNVYKRKNKEIKIEPEPCGTDCFLLLEGAKEYAMLHN	not soluble
PALVVDDTLTIQPAVSFSEWQAGFRAQALKAGIRADVFDLAFAGVTPDMSVVKADRSQPEFSRPVWEYLDGAISAVRVRKGQALLSQYADDLQKIEQQYGVDRQALVAVWGMESNFGSFQGSQSVIRSLATLAYEGRRPGFAQSQLLAALEIIQHGDITPDKMLGSWAGAMGQTQFIPTTYNTHAVDFDGDGRRDIWNTPADALASTAHYLQSSGWQRGQPWGFEVVLGSGFDYSLADSTTRKSLAEWQQLGLKQPDGSAIPVAASQQQAVLLLPAGYRGPAFLVLDNFRAILKYNNSTSYALAISLLSDRFKGAGYVVGAWPRADTPLSRSERIELQSLLSARQYDAGAPDGIIGANTRKAIRSAQQSFGWPADGYPTHELLEALRKPVGQ	soluble
PTGGGKTLSSTAFALNHAMHHGKQRVIYVIPYTSILEQTAEIFRKIFGDENVIEHHSNLDPDKEDSRSRLATENWDAPIIVTTNVQFFESLFAARTSRCRKLHNIVNSVVVLDEAQLLPPEFLAPILHVMQDLSQNYKVSFVLSTATQPAFSPRPKFSGLRGVQELMD	not soluble
SALPTPHEIRNHLDDYVIGQEQAKKVLAVAVYNHYKRLRNGDTSNGVELGKSNILLIGPTGSGKTLLAETLARLLDVPFTMADATTLTEAGYVGEDVENIIQKLLQKCDYDVQKAQRGIVYIDQIDKISRKSDNPSITRDVSGEGVQQALLKLIEGTVAAVPPQGGRKHPQQEFLQVDTSKILFICGGAFAGLDKVISHRVETGSGIGFGATVKAKSDKASEGELLAQVEPEDLIKFGLIPEFIGRLPVVATLNELSEEALIQILKEPKNALTKQYQALFNLEGVDLEFRDEALDAIAKKAMARKTGARGLRSIVEAALLDTMYDLPSMEDVEKVVIDESVIDGQSEPLLIYGKPEAQQASGE	soluble
SGGVTSSIAAKFAFFPPTPPSYEVIADDSCGGRLYIPEIPRRDDVDILKLRTRCGNEIVAVYVKHSKANGTLLYSHGNAADLGQMFELFVELSNRLRVNLMGYDYSGYGQSTGQASECNTYADIEASYKCLKEKYGVEDDQLIVYGQSVGSGPTVDLASRTPNLRGVVLQCPILSGMRVLYPVKCTYWFDIYKNIDKIGSVTCPVLVIHGTADEVVDWSHGKRLWELSKEKYEPLWISGGGHCDLELYPDFIRHLKKFVVSLGNKQAEQAPT	soluble
STDFKLGIVRLGRVAGKTKYTLIDEQDIPLVESYSFEARMEVDADGNGAKIFAYAFDKNRGRGSGRLLHELLWERHRGGVAPGFQVVHLNAVTVDNRLDNLQLVPWGWRPKAEETSSKQREQSLYWLAIQQLPTDPIEEQFPVLNVTRYYNANGDVVEEEENSCTYYECHYPPCTVIEKQLREFNICGRCQVARYCGSQCQQKDWPAHKKHCRERKRPFQHELEPER	soluble

— the DeepSol protein solubility set
